In patent publication US20160041182A1 (Janssen / Centocor, published 2016):
Results are given in words; binding and its absence hold for the method and conditions named. Some results given as binding are weak or reduced against the parent protein; the word gives no strength.

Biological target: T1, mouse IL-17A (mouse, UniProt Q62386 26-158, limits assumed)
T1 construct: In SPR it was injected in solution, and no biotinylation is mentioned there; also called mIL-17A; mIL17A
T1 sequence (looked up): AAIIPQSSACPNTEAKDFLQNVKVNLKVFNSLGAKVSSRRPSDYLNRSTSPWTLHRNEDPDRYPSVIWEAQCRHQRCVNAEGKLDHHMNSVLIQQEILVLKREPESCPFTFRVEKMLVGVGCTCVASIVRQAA
Experiment: SPR (ProteOn XPR-36)

B1: TP1KR9P62-D3 (designed binder)
chain: MLPAPKNLVVSRVTEDSARLSWTAPDAAFDSFAIEYFEDWWSGEAIVLTVPGSERSYDLTLKPGTEYSVSIRGVKGGYPSSPLSAIFTT
notes: also called TCL14-His fusion protein
  binding: binds
